{
  "source": "patent US5635379A",
  "about": "“D-2-alkyl-tryptophan and peptides containing same” (Deghenghi; Romano, priority 1990, dated 1997)",
  "test_system": "Growth Hormone release",
  "test": "GH release in 10-day old rats after subcutaneous injection",
  "format": "in vivo",
  "conditions": "s.c. 160 μg/kg",
  "experimental": "The peptides of Examples 4 and 5 were tested as Growth Hormone releasers in rats. GH released in a series of seven 10-day old rats, injected subcutaneously with a standard dose of 160 μg/kg and sacrificed 15 minutes after the injection.",
  "note": "Part of at least one peptide drawing is inferred or uncertain, most often the ends. Square brackets hold non-standard residues; d marks the D form. Peptide text beside a SMILES is read from it. dTrp(2-Me) = Cc1[nH]c2ccccc2c1C[C@@H](N)C(=O)O",
  "data": [
    {"smiles": "Cc1[nH]c2ccccc2c1C[C@@H](NC(=O)[C@H](Cc1c[nH]cn1)NC(=O)[C@H](C)N)C(=O)N[C@@H](C)C(=O)N[C@@H](Cc1c[nH]c2ccccc12)C(=O)N[C@H](Cc1ccccc1)C(=O)N[C@@H](CCCCN)C(N)=O", "note": "[Example 5, Ala-His-D-2-methyl-Trp-Ala-Trp-D-Phe-Lys-NH2] (H-AH[dTrp(2-Me)]AW[dF]K-NH2)", "values": [
      {"measurement": "activity as Growth Hormone releaser", "result": "very active"},
      {"measurement": "GH", "setting": "sacrificed 15 minutes after injection", "result": "212.00 ± 48.63", "unit": "ng/kg"}
    ]}
  ]
}
